Among all 31,000 sequences or so, about 1,400 (4.5%) were called active.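 How the source made its calls: active means median seed-adjusted z-score above 1 or below -1; inactive means the rest.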 This is one part of the list.

This assay can be described thus: Novel Modifiers of Survival Motor Neuron (SMN) Protein: Gene Identification via Genome-wide siRNA Screen.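 Further: luminescence tracks full-length SMN protein made from the SMN2 reporter.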 The settings on record: HEK293T SMN2-luciferase reporter, siRNA knockdown, 72 h; actives lie on both sides. A digest of the protocol: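 siRNA screen, 10418 genes ×3 siRNAs; 1 pmol/well, lipid reverse transfection into HEK293T SMN2-luc reporter line. 72 h, 37 °C, 5% CO2; ONE-Glo readout. Data: neg-ctrl normalized, log10, MAD; hit = MAD >1.0 or < -1.0.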
In general terms: Reporter assays use an easily measured gene product as a stand-in for the process of interest.
Turning to GAGGUUGAUUUAUACCAAUTT against SAP30, the median seed-adjusted z-score was inactive: -0.618.

In the case of CUAGUGACAAUAAAGAUUATT against GRB7, the median seed-adjusted z-score is inactive: 0.439.

Turning to UCUUCUAAAUACUUCCUAATT against GJC3, the median seed-adjusted z-score is inactive: -0.137. For the sequence GCAGCAUCAAUGUCUGGAATT against SLC6A8, the median seed-adjusted z-score is inactive: -0.0673.

Take GGUAAACGCAAAGCACUGATT against MAP2K4: the median seed-adjusted z-score was inactive: -0.366. With GCAAGAGUUUGAUCGCUUUTT against RECK the figure was inactive: -0.000321; with GCAUCUUGGGUGUUGACAATT against NARS2, inactive: 0.505. In the case of CAUUGAGAAUAAUAACAGATT against PPP3CA, the median seed-adjusted z-score is inactive: 0.74. With GCGAGGAAGUGGGAAUUCATT against RGS6 the figure was inactive: -0.904; with GUUCCAAGGUGGAUGCGAATT against ABCC1, inactive: 0; with CCUUUACCUUUAGACGUAUTT against RBM45, inactive: -0.234. With GAUAUUCAUUUGUUCGGUUTT against TIA1 the figure was inactive: -0.188. The value for CGAGGACAUUGAUAACGAATT against CCNB2 was inactive: 0.0328. In the case of CAAUCUUCUUUGAUGUCAATT against GDE1, the median seed-adjusted z-score was inactive: -0.256. Take UGCUCUGCGUAGGACCCUATT against FFAR1: the median seed-adjusted z-score is inactive: 0.248. The value for CAUCCUGUAUAAGUACUAUTT against RNF216 was inactive: -0.246; that for CACGAAUCCUGGUUGAUCATT against ELAVL4 was inactive: -0.0523; that for GCUCUUCGAGAGAACCUGUTT against TUBG1 was inactive: 0.618.

As for CAAUAUGAAUGGUAUUGCATT against TEC, the median seed-adjusted z-score is inactive: 0.258. Regarding CAUCCGCACUUUCAAGGGATT against LSM11, the median seed-adjusted z-score was inactive: -0.873.

Take GCCUCAAGCUCGAAUGUGATT against AES: the median seed-adjusted z-score is inactive: -0.478. The value for CUUCUUCCGUGACUUCUCATT against COL18A1 was inactive: -0.441; that for GCUGGUUAGGAACCGCUCATT against ZNF579 was inactive: -0.0604; that for GGAAGGAGUUUGUGAGCGATT against ARL10 was inactive: -0.455. Take UGCAGGUCAUUAACAAUUATT against RNASE2: the median seed-adjusted z-score is inactive: 0.283. The value for GUAAAUCAAUGGUGGAUGATT against RAP2C was inactive: 0.443; that for CUUGGAUGAUGGCAAGACATT against TCEB2 was active: 1.28. In the case of GGACGAGAUAUAACAUAUUTT against ACTR3, the median seed-adjusted z-score is inactive: -0.7. The value for GGUGCGUGCUAGUGCAAUUTT against C1QL3 was inactive: -0.276; that for CGCUGCACGUCUACCAGUATT against KIF26A was inactive: -0.428; that for CGUCGAAUGUUUAAAGUCUTT against ITFG1 was inactive: -0.417. With GCACUGUGAAGAUCGAGUUTT against MATN3 the figure was inactive: 0.0972; with GGAUCGAAGUUGUAAUCGUTT against DOCK7, inactive: 0.23; with GUAAUAGAGAGUAAUCGAATT against MYO9A, inactive: -0.567. With CGUCUACUCGGAGAGCAAATT against MC3R the figure was inactive: 0.424; with GGAUAACUUCCUAUAUGAATT against GPR160, inactive: -0.278. Take GGAGAACCACAAGAACAUUTT against ZNF423: the median seed-adjusted z-score is inactive: 0.0134.

As for GUCAAAGAGUGACAACUUUTT against CALB2, the median seed-adjusted z-score is inactive: 0. As for UGUCAGCUGCAUAAAGAGATT against LTF, the median seed-adjusted z-score was inactive: 0.236. As to GCCUAUCUCCAAAAUCUGATT against MYH1, the median seed-adjusted z-score was inactive: -0.567.

As for GAAACGAUGCCCAAUCUUATT against LRRTM2, the median seed-adjusted z-score was inactive: 0.508.

For the sequence GCGACUCCUAGAGAACAAATT against LSG1, the median seed-adjusted z-score was active: 1.31. The value for CUACCUUACCUGAACGUAUTT against C1GALT1 was inactive: -0.394; that for GAAAGAUAUUCCUUACUUUTT against RAB7B was inactive: 0. With GUUCAGGAGUUAUCGAACATT against IFIH1 the figure was inactive: 0.419; with GUAUUUGAAUCACCACAAATT against ZNF692, inactive: 0.556; with GCAACGUGAUCAAAGGUAUTT against GNA13, inactive: 0. In the case of GGUCAAUUCAGUGAAGAUATT against ARL8B, the median seed-adjusted z-score was inactive: -0.477. The value for GCAAGAUCAUGAACCACGATT against CDC42BPG was inactive: 0.153. With GCAGUUUACUGUUGCGUUUTT against RAB35 the figure was inactive: 0.317; with GAGCUGAUCUACAAAGAAUTT against PDE2A, inactive: -0.2.

Consider GCAGCUCCACGAGACCUUUTT against WFDC1, for which the median seed-adjusted z-score was inactive: 0.152.

For the sequence AGAAGUACGAGGCACUGUATT against APBB3, the median seed-adjusted z-score was inactive: -0.299.

For GCACAUCAGUGGAGUGUUUTT against IFT140, the median seed-adjusted z-score was inactive: -0.0152. On to GCUCCAACCUCGAAGUAGATT against ACVR2B, for which the median seed-adjusted z-score was inactive: 0.824. With CAAAUCUGAGCAAUACAUATT against ACCN2 the figure was inactive: -0.597; with GAAUUCGCUUCAUCCAUUUTT against POMT2, inactive: -0.614. For GCUAUGGUCUGAUCCAGAUTT against PPP1CB, the median seed-adjusted z-score was inactive: -0.81. With GAUAGUGACUCGGAUCUUATT against RPH3AL the figure was inactive: 0.21; with GCAGUUGUAUAAAGGUGCATT against FBXO11, inactive: 0.733; with UCAUUUACCGAGACCUGAATT against RPS6KA4, inactive: 0.193. As for CAACCACAAUGUUCGUAAATT against GBF1, the median seed-adjusted z-score was inactive: -0.162. With GCAUCGAGGUUGGCAAGAATT against NME3 the figure was inactive: -0.0125.

On to GUGUCUCUGCUCUAAGUAATT against B4GALT1, for which the median seed-adjusted z-score is inactive: 0.

For CGAGUGUGGUUACAGAGGATT against GPT2, the median seed-adjusted z-score is inactive: 0.0268. CCUCCAUUCUUAACCUCUUTT against HRH2: the median seed-adjusted z-score was inactive: -0.257. With CAGAAGAAAUAGGCAAGAATT against SMAP2 the figure was inactive: -0.0114.

Turning to AGAAUUCCGUGAACAGUCATT against TGM3, the median seed-adjusted z-score was inactive: 0.257.

For AGGACAUUUCUAUAUGUAUTT against RGPD5, the median seed-adjusted z-score is inactive: -0.0931. As to GCAUUGACCUAGUGAUUAATT against CPS1, the median seed-adjusted z-score was inactive: -0.247.

Consider GCAAGAAGAUUGACCUGGATT against KIF2B, for which the median seed-adjusted z-score was inactive: 0.226.

In the case of GGACUAAAAGAAGACUAUATT against CHUK, the median seed-adjusted z-score was inactive: -0.613. GCGGAGAUCAGAUUAGUCATT against NCL: the median seed-adjusted z-score was active: 1.33. Take GGGUCAAAGAAUUACGGAATT against RAB21: the median seed-adjusted z-score is inactive: 0.544.

As for CGUCAUCCCUCAACAAGAATT against ATP2B2, the median seed-adjusted z-score was active: 1.37. The value for AUUACACGGUGGACAGUAATT against LHX4 was inactive: 0.0795.

As for UUCACGCCCUUGACACUAATT against ZNF579, the median seed-adjusted z-score is inactive: -0.0604. With GUUCCAGUAUGGGAAUUAUTT against MEPCE, the median seed-adjusted z-score was inactive: -0.35. Take CUAAUAACAGGGUACAGUATT against ZNF238: the median seed-adjusted z-score was inactive: -0.491. With CAAAGCCUCUUUAUUCUUUTT against PTBP1 the figure was inactive: 0.578; with CGAAUAACCUUUAGUGAGATT against CATSPER4, inactive: -0.669; with UGACAGUGCUGUUUUAUUUTT against P4HTM, inactive: -0.257. The value for CCCAAACUCCUCUACUGUATT against FGF1 was inactive: 0.415; that for CGUCGGCCUUCAUCAGGAATT against OTUB2 was inactive: 0.513; that for GGACUAAGUGAAGAGCUUATT against NFYB was inactive: -0.29.

For CGAUUGAUGUACAGCUAUATT against FBXO4, the median seed-adjusted z-score is inactive: -0.0767. In the case of GUCAACCACGUGUCCCUUATT against SSTR4, the median seed-adjusted z-score was inactive: -0.00217. Turning to GAACAUUUCCAAGUCUGUATT against YSK4, the median seed-adjusted z-score was inactive: -0.181. With GUAUGAGAGUGACGAGAAATT against ALPL the figure was inactive: -0.229; with GUGACUCGCUAUUAUUUUATT against TFPI2, inactive: 0.519; with GGCGUAUCCUGGAUCUAAATT against ARNT, inactive: -0.244. GGCCGUGGAUCAUCACUAUTT against FLJ16165: the median seed-adjusted z-score is inactive: -0.404. The value for GGUGAGUGUUUGAAUACCATT against LTBP1 was inactive: 0.143; that for GCAGGUCCGAGGUUACUGATT against KRT19 was inactive: 0.0661; that for CACCCUAGGUGUUGCUGGATT against P2RY11 was inactive: 0.211.

Turning to AUUGCACGGCUGAACCUGATT against NINJ2, the median seed-adjusted z-score was inactive: 0.133. Regarding CACAAGCAAGUUCAAAUAATT against FCRL4, the median seed-adjusted z-score was inactive: -0.39. The value for CCAUGACUUCCAGAGCAUATT against CNKSR1 was inactive: 0.217. Turning to CAGCUGAUGCGGACCAAGATT against RASSF4, the median seed-adjusted z-score is inactive: 0.29. With GAAUAUUGUGGGUAAUGCUTT against PHF20 the figure was inactive: 0.138.

On to CAGAUUAUGAUGAUCAAAATT against E2F8, for which the median seed-adjusted z-score is inactive: 0.209. For the sequence GCAUGGUGGUGCUACUUCATT against ZNF324B, the median seed-adjusted z-score was inactive: 0.176. With GCCUGUGAAGUGAACCUGATT against TMPRSS6 the figure was active: 1.29. Consider GGAUAAAGAUCCUCCCAUUTT against PDIA4, for which the median seed-adjusted z-score was inactive: -0.499. In the case of GGACUACAGCGGACAAGGATT against WDR1, the median seed-adjusted z-score is inactive: -0.457. The value for GAUAGGUUGCUGACUUUUATT against S100A2 was inactive: -0.0951.

For the sequence GCUGACAUCCGGUUCGUCUTT against TIMP1, the median seed-adjusted z-score was inactive: -0.0422.

The record behind these values is PubChem BioAssay AID1347426 (Functional Genomics Laboratory (NCATS/FGL), 2020).
